The list shows a part of the results. Shown are side measurements of this screen, not its main read-out; they come without a call. Compounds called inactive in the main read-out are mostly missing here. The note in brackets gives the kind of curve behind each potency; many fits are weak.

The assay in a line: qHTS Assay for Lipid Storage Modulators in Drosophila S3 Cells.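 As to cell number change: cells counted by Cell Tracker Red CMTPX staining in the red channel.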 The settings on record: BODIPY lipid droplet fluorescence, 18-24 h; for cell number change: measured here: cell count max response, cells fed with added oleic acid. Summed up: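 Laser-scanning cytometry quantifies lipid droplet accumulation (500–530 nm total intensity; droplet/cell object ratio) in oleic acid-fed (400 uM added) Drosophila S3 cells treated with a concentration series. 20 uM Triacsin C defined 100% inhibition.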
Background: qHTS replaces the single test concentration by a dilution series.

[1] abbreviates: measured here: cell number channel AC50, cells fed with added oleic acid.
[2] abbreviates: measured here: lipid fluorescence (Fed channel) AC50, cells fed with added oleic acid.

For `CC(=O)Nc1cccc(NC(=O)CS(=O)(=O)c2cn(CC(=O)N3CCOCC3)c3ccccc23)c1`, the cell number change is -19.6%. Further, the half-maximal activity concentration (AC50) (commonly the concentration at which the activity in the assay is half-maximal) under setting [1] was 0.103 µM [falling, full curve, poor fit]. Turning to `CN(C)CCNC(=O)c1ccccc1`, the cell number change is -34.7%. Besides, the AC50 under setting [1] was 16.4 µM [falling, single point].

As to `O=C(CS(=O)(=O)c1cn(Cc2cccc(F)c2)c2ccccc12)N1CCOCC1`, the cell number change was -0.871%. Further, the half-maximal activity concentration (AC50) under setting [2] was 6.51 µM [falling, single point]. Regarding `CN(C)C(=C(C#N)C#N)N1CCN(c2ccc(Cl)c(Cl)c2)CC1`, the cell number change was -15.2%. Further, under setting [2], the AC50 was 32.6 µM [falling, single point].

For the compound `Cc1ccc(NC(=O)C2CCCN2S(=O)(=O)c2cccc3cccnc23)c(C)c1` (stereo not given), the cell number change was -13.5%.

`COc1ccc(C2CC(c3ccc(F)cc3)Nc3nc(N)nn32)cc1` (stereo not given): the cell number change amounted to 11.3%. Further, the AC50 under setting [2] is 0.103 µM [rising, partial curve, poor fit]. For `COc1ccc(CCC(=O)Nc2ccc(N3CCOCC3)cc2)cc1`, the concentration at half-maximal activity (AC50) under setting [1] is 6.51 µM [falling, single point]. In the case of `CCCOc1ccc(C2C(=O)N(C3CCCCCC3)CC(=O)N2Cc2ccco2)cc1OC` (stereo not given), the cell number change came to 91.6%. Also, the half-maximal activity concentration (AC50) under setting [1] is 20.6 µM [rising, partial curve]. For the compound `CC(C)CNC(=O)CN1C(=O)NC(Cc2c[nH]c3ccccc23)C1=O` (stereo not given), the cell number change was -30.6%. Besides, under setting [1], the concentration at half-maximal activity (AC50) was 23.1 µM [falling, single point].

For `O=C(O)c1[nH]nc2c1COc1ccccc1-2`, the cell number change is -146%. Besides, the half-maximal activity concentration (AC50) under setting [1] was 25.9 µM [falling, partial curve]. In addition, the half-maximal activity concentration (AC50) under setting [2] was 25.9 µM [falling, partial curve]. As to `Cc1cc(Br)ccc1NC(=O)CNC(=O)COc1ccccc1C`, the cell number change is 25%. As to `CC(C)(C)c1ccc(NC(=O)N2CCCN(c3ccc([N+](=O)[O-])cn3)CC2)cc1`, the cell number change is -26.6%. Moreover, the AC50 under setting [2] was 23.1 µM [falling, single point]. With `COCCN(CC(=O)NCC1CCCO1)C(=O)CCC(=O)Nc1cc(C)on1` (stereo not given), the cell number change is 5.52%. Besides, the half-maximal activity concentration (AC50) under setting [2] was 0.0731 µM [falling, full curve, poor fit]. Turning to `O=S(=O)(Nc1ncccn1)c1ccc(NC(=S)Nc2ccccc2)cc1`, the cell number change was 90.9%. For the same compound, the concentration at half-maximal activity (AC50) under setting [1] is 29.1 µM [rising, single point]. Also, under setting [2], the AC50 was 25.9 µM [rising, partial curve]. As to `Cn1c2ccccc2c(=O)c2cc(C#CC3(O)CCCCC3)ccc21`, the cell number change is -7.49%. In addition, the AC50 under setting [2] is 18.4 µM [falling, single point]. As to `CC1CCN(C(=S)c2ccc(O)cc2)CC1`, the cell number change came to 16%. For the same compound, the half-maximal activity concentration (AC50) under setting [2] was 0.00517 µM [rising, full curve, poor fit]. As for `COc1ccc(NC(=O)COc2ccc(-n3cnnn3)cc2)cc1OC`, the cell number change was -19.7%. Also, under setting [2], the half-maximal activity concentration (AC50) was 8.2 µM [falling, partial curve]. On to `CC(C)N1CCc2c(sc(NC(=O)c3ccc(S(=O)(=O)N(C)CC4CCCO4)cc3)c2C(N)=O)C1` (stereo not given), for which the AC50 under setting [2] was 5.17 µM [falling, full curve]. Turning to `CC(C)OC(=O)c1cc(NC(=O)c2nn(C)cc2Br)cc(C(=O)OC(C)C)c1`, the cell number change is -0.123%. Further, the AC50 under setting [2] is 0.58 µM [rising, full curve]. For `COCCNC(=O)CN1CCC(NC(=O)Nc2ccc(C(F)(F)F)cc2)CC1`, the AC50 under setting [2] is 0.651 µM [falling, single point]. In the case of `O=C1NCC(=O)N(Cc2ccccc2)/C1=C/c1ccccc1`, the cell number change was 7.43%. As to `Cn1c(/C(C#N)=C/c2cccc(O)c2)nc2ccccc21`, the cell number change was -14%. Also, the AC50 under setting [2] is 14.6 µM [falling, single point].

On to `COc1cc(C(=O)COC(=O)c2cc([N+](=O)[O-])ccc2N2CCOCC2)ccc1OC(F)F`, for which, under setting [2], the concentration at half-maximal activity (AC50) was 0.411 µM [rising, single point]. Regarding `CCOC(=O)N=Nc1c(O)n(C)c2ccccc12`, the cell number change is -3.1%. In addition, the AC50 under setting [1] was 3.66 µM [rising, single point]. On to `S=C(Nc1ccc(-c2nc3ccccc3[nH]2)cc1)Nc1cccnc1`, for which the cell number change amounted to 13.9%. Further, the half-maximal activity concentration (AC50) under setting [2] was 0.326 µM [falling, full curve]. Consider `COC(=O)N/N=C/c1cn(CCCOc2ccccc2)c2ccccc12`, for which the cell number change was -0.934%. Under setting [2], the concentration at half-maximal activity (AC50) is 0.231 µM [rising, full curve]. In the case of `C=CCC1CCCCC12NC(=O)NC2=O` (stereo not given), the cell number change came to 7.37%. In addition, the concentration at half-maximal activity (AC50) under setting [2] is 16.4 µM [falling, partial curve]. With `CCOc1ccc(NC(=O)CN(C)Cc2ccc3c(c2)OCO3)cc1S(=O)(=O)N1CCCC1`, the cell number change was -17.9%. Moreover, the concentration at half-maximal activity (AC50) under setting [1] was 4.11 µM [falling, single point].

Regarding `O=C(c1ccccc1Cl)N1CCN(S(=O)(=O)c2cccs2)CC1`, the cell number change is -6.27%. For the compound `O=C(Nc1ccccc1-c1ccccc1)NC1CC2CCCC(C1)N2CCc1ccccc1` (stereo not given), the cell number change is -0.626%. Besides, the half-maximal activity concentration (AC50) under setting [1] was 0.13 µM [falling, full curve, poor fit]. In addition, the AC50 under setting [2] is 0.366 µM [falling, partial curve]. As to `CCOC(=O)c1ccc(NC(=O)c2ccc(NS(C)(=O)=O)cc2)cc1`, the concentration at half-maximal activity (AC50) is 1.64 µM [rising, partial curve] under setting [1] and 1.64 µM [rising, partial curve] under setting [2].

`O=C(CCC(=O)Nc1ccc(Br)cc1)N/N=C/c1cc([N+](=O)[O-])ccc1O`: the cell number change was 23%. For `CCOC(=O)N1CCN(CC(O)COCc2ccc(OC)c(OC)c2)CC1` (stereo not given), the cell number change was found to be 3.92%. The AC50 under setting [2] was 6.51 µM [rising, partial curve]. Consider `Cc1cc(OCc2cc(C(=O)N(C)C3CCOCC3)no2)cc(C)c1Cl`, for which the cell number change was 12.7%. For the same compound, the AC50 under setting [1] is 1.26 µM [rising, partial curve]. In the case of `FC(F)(F)c1cc(-c2ccco2)nc(-n2cnc3ccccc32)n1`, the cell number change was -4.67%. As to `COc1ccc(CCNC(=O)[C@@H]2C[C@H]2c2ccccc2)cc1OC`, the cell number change turned out to be 22.6%. In addition, the concentration at half-maximal activity (AC50) under setting [1] is 6.51 µM [rising, partial curve, poor fit]. For the same compound, the AC50 under setting [2] is 29.1 µM [falling, single point].

Regarding `COCCNC(=O)c1ccc(C)cc1C`, the cell number change was 3.25%. Besides, the AC50 under setting [2] is 2.31 µM [falling, single point]. Take `Cc1c(C(=O)Nc2ccc3c(c2)OCO3)sc2nc(-c3ccccc3)cn12`: the cell number change stood at 15.8%. For the same compound, the half-maximal activity concentration (AC50) under setting [1] is 0.146 µM [rising, full curve, poor fit]. Also, the half-maximal activity concentration (AC50) under setting [2] is 0.291 µM [rising, partial curve, poor fit]. Regarding `COC(=O)c1oc2c(c1C)C(=O)CC(C)(C)C2`, the cell number change was found to be 47.2%. In addition, the AC50 under setting [1] was 9.2 µM [rising, partial curve]. Moreover, under setting [2], the concentration at half-maximal activity (AC50) was 29.1 µM [rising, single point]. `O=C(NN=C1CCCCC1)c1ccccc1OCc1ccc(F)cc1`: the cell number change is 30.7%. Further, the AC50 under setting [1] was 14.6 µM [rising, partial curve]. As for `COc1cc(S(=O)(=O)N2CCOCC2)ccc1F`, the cell number change is -16%. Under setting [2], the AC50 is 4.11 µM [falling, single point]. For the compound `O=C(O)C(Cc1ccccc1)N1C(=O)/C(=C/c2ccccc2)SC1=S` (stereo not given), the cell number change was -38.4%. Besides, the concentration at half-maximal activity (AC50) under setting [1] is 2.59 µM [falling, full curve]. Besides, the AC50 under setting [2] is 2.06 µM [falling, partial curve]. On to `O=C(NCc1ccco1)c1cnn2c1NC(c1ccc(Br)cc1)CC2C(F)(F)F` (stereo not given), for which the concentration at half-maximal activity (AC50) under setting [2] was 5.17 µM [rising, partial curve, poor fit].

As to `Cc1ccc(C(=O)N(CCN2CCCCC2)CC2CCCN(C3CCCC3)C2)s1` (stereo not given), the cell number change is -9.94%. Under setting [2], the concentration at half-maximal activity (AC50) is 6.51 µM [falling, single point].

Regarding `Cc1c(CN(C)C(=O)CSc2nc(-c3ccco3)cc(C(F)(F)F)n2)cnn1C`, the cell number change was -14.5%. Regarding `O=C(NCCCn1ccnc1)/C(=C/c1ccc(Cl)cc1)NC(=O)c1ccccc1`, the cell number change was -3.81%. Further, the half-maximal activity concentration (AC50) under setting [2] is 3.26 µM [falling, full curve]. Take `CC(=O)Nc1ccc(S(=O)(=O)N2CCN(c3cnn(C)c(=O)c3Cl)CC2)cc1`: the cell number change is -2.87%. In addition, the AC50 under setting [2] was 6.51 µM [falling, single point].

Take `O=C(NCCCn1ccnc1)c1ccc(F)cc1`: the cell number change is -8.77%. The AC50 under setting [2] was 0.058 µM [falling, full curve, poor fit]. Turning to `CC1(C)Cc2nc(N)c(=O)sc2C1`, the cell number change stood at 1.4%. For the same compound, the AC50 under setting [2] is 23.1 µM [rising, single point].

Regarding `CN(c1ccccc1C(=O)NCC1CCCO1)S(C)(=O)=O` (stereo not given), the cell number change was -47.5%. Moreover, the concentration at half-maximal activity (AC50) under setting [1] is 3.26 µM [falling, full curve]. Besides, the AC50 under setting [2] was 29.1 µM [falling, single point].

In the case of `O=C(O)CCSc1nc2ccccc2n1CCOc1ccccc1`, the cell number change worked out at 1.35%. Under setting [1], the AC50 was 0.231 µM [rising, full curve]. Besides, the concentration at half-maximal activity (AC50) under setting [2] was 0.731 µM [falling, full curve].

Regarding `CNc1ccccc(C(=O)/C=C/c2ccccc2OC)c1=O`, the cell number change is -2.99%. Besides, the AC50 under setting [2] is 9.2 µM [falling, single point].

Turning to `CC(=O)c1c(C)[nH]c(C(=O)NCc2ccc(C)cc2)c1C`, the cell number change is 23.1%. Further, the AC50 under setting [2] is 2.06 µM [rising, partial curve].

With `CC1(C)CC(=O)C2=C(C1)OC(N)=C(C#N)C21C(=O)N(Cc2ccccc2Cl)c2ccccc21` (stereo not given), the cell number change came out at 69.8%. Further, the AC50 under setting [1] was 2.59 µM [rising, full curve]. The AC50 under setting [2] is 16.4 µM [rising, single point]. As to `N#C/C(C(N)=O)=C1/CCc2ccccc2N1`, the AC50 reads like this: under setting [1], 3.66 µM [rising, single point]; under setting [2], 2.91 µM [rising, partial curve]. As for `Cc1nc2cc(NC(=O)Nc3ccccc3Cl)ccc2n1C`, the cell number change is -13.4%. The concentration at half-maximal activity (AC50) under setting [2] was 18.4 µM [falling, single point]. For `CCN(CC)CCN1C(=O)C2C(C(=O)Nc3cccc(C)c3)C3C=CC2(O3)C1C(=O)NC1CCCC(C)C1C` (stereo not given), the AC50 under setting [2] was 0.58 µM [falling, single point].

Take `CN(CCCCCCCCCCN(C)C(=O)Oc1cccc([N+](C)(C)C)c1)C(=O)Oc1cccc([N+](C)(C)C)c1`: the cell number change was -5.41%. Also, under setting [2], the concentration at half-maximal activity (AC50) is 6.51 µM [rising, partial curve]. Turning to `CC1=C(C(=O)OC(C)C)C(c2cccc([N+](=O)[O-])c2)n2c(cc(=O)[nH]c2=S)N1` (stereo not given), the cell number change turned out to be 1.13%. The AC50 under setting [2] was 0.82 µM [rising, full curve, poor fit].

(Values after PubChem BioAssay AID2685 (National Center for Advancing Translational Sciences (NCATS), 2010).)
